{
  "source": "PubChem BioAssay (NCATS)",
  "note": "The list shows a part of the results. These are further read-outs of the screen, such as a control signal, another cell line or another target. No call is given for them. The list favours compounds with an active or inconclusive main result.",
  "data": [
    {"assay": "qHTS assay for small molecule agonists of retinoid X receptor alpha signaling (AID 588544)", "conditions": "HEK293T RXRa-UAS-bla, beta-lactamase reporter, 18 h; 530 nm emission", "units": {"max response": "%"}, "values": [
      {"smiles": "CC(C)(c1ccc(O)cc1)c1ccc(O)cc1", "max response": 10.2},
      {"smiles": "CC(=O)NNc1ccccc1", "max response": 10.2},
      {"smiles": "COP(=O)(OC)Oc1ccc([N+](=O)[O-])cc1", "max response": -38.2},
      {"smiles": "O=S(=O)(Cl)c1ccccc1", "max response": 35.5}
    ]}
  ]
}
